Among the data in publication PMC7819943, “Rice protein-binding microarrays: a tool to detect cis-acting elements near promoter regions in rice” are binding signal values, retold here.

The other results are listed elsewhere or left out.

For this assay, the target named is T1, OsSMF1 (Oryza sativa, UniProt Q6ZLB0 1-436).
T1 sequence: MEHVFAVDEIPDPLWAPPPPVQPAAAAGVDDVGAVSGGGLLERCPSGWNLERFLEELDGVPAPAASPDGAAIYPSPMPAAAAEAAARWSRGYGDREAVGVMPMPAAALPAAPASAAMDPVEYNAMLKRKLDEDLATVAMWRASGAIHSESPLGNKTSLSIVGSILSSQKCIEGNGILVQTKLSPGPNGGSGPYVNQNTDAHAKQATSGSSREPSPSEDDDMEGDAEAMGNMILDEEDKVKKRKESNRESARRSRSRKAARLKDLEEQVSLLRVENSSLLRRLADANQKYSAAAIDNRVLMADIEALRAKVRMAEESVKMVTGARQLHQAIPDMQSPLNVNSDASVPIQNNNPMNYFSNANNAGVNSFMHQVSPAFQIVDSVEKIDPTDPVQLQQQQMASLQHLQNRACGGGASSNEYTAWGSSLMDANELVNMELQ
As to the kind of experiment: protein-binding microarray (RPBM); PBS, 2% BSA, 51.3 ng/ul salmon testes DNA, 50 uM zinc acetate, 200 nM TF, 25 C, 1 h; high values mean tight binding. The note with it: protein: recombinant; tags: N-terminal polyhistidine and DsRed monomer fusion (pET32a); chain copies: 2; label: CyDye5-dUTP incorporated in the synthesized complementary strand; 3' TTTTT single-stranded linker to array surface; dsDNA, one strand shown. A digest of the protocol:
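Polyhistidine-tagged DsRed fusions of transcription factors, joined at the N-terminus, were expressed in E. coli BL21-CodonPlus and isolated on Ni–NTA. They were incubated at 200 nM for 1 h at 25 °C on a custom Agilent array, double-stranded and BSA-blocked, in PBS with 2% BSA, salmon testes DNA and 50 µM zinc acetate. The binding signal is per-feature fluorescence intensity (arbitrary units) read on an Axon 4000B scanner after washing.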
In the case of “CGGAGACTGTGCCACGTGTCCTCCTCCTGCCACGCGTACCCGGAGTCACCTAGTGCAG”, the binding signal was 27200 fluorescence intensity (a.u.).
Then “GGAAGCTAATTATAATCCGACTTAACACCTCTACACGTCACGGAGTCACCTAGTGCAG”, with 7420 fluorescence intensity (a.u.).
On to “TGCTAGATACCTCTTCATCTGTACACACGCCCTGCCAAATCGGAGTCACCTAGTGCAG”, for which the binding signal is 3290 fluorescence intensity (a.u.).
Then “GCACCGAACCAAATCCCCATCGCGCCGCGGCGGTGGCGAGCGGAGTCACCTAGTGCAG”, with 28500 fluorescence intensity (a.u.).
Next, “CGCGTCGCCCCTTCTCTCGTCACCGCGCCACCGCATCGCCCGGAGTCACCTAGTGCAG”: 5180 fluorescence intensity (a.u.); “GATGGTGAATTTTGCTGCTGTCAAGTGATTGCTCCATTCACGGAGTCACCTAGTGCAG”: 3290 fluorescence intensity (a.u.).
As for “CTGCATATTGTTCATCTGGCGAGCCACGTCGATTGTTACACGGAGTCACCTAGTGCAG”, the binding signal is 6580 fluorescence intensity (a.u.).
With “GCCACCACGCCGAGAGCCCATCTTGTAGTCATCTCTCGCTCGGAGTCACCTAGTGCAG”, the binding signal was 26700 fluorescence intensity (a.u.).
For “CGTTCCGGCTCCGATAGCAACGTGACCGTACGGGATAAGACGGAGTCACCTAGTGCAG”, the binding signal was 3190 fluorescence intensity (a.u.).
For “TACAATTTGTTGCGAGATCCACCTCAACCTACAGGCTACACGGAGTCACCTAGTGCAG”, the binding signal is 3490 fluorescence intensity (a.u.).
In the case of “ATAATCACACTCAATCTCAGGTTCTTGCTCCACGTACTCCCGGAGTCACCTAGTGCAG”, the binding signal was 7140 fluorescence intensity (a.u.).
Next, “ACGGCGACAGCGTGGAGCTCCACGACGGCAGCGACGTCGGCGGAGTCACCTAGTGCAG”: 3590 fluorescence intensity (a.u.).
“CGCCGCCGCCGCCGCCGTCCAAGATGGACTGCTTCTTGTCCGGAGTCACCTAGTGCAG”: the binding signal is 3420 fluorescence intensity (a.u.).
Next, “CCGATGTGGGTCCCACACCGAGTCAGCGCACGTCGGACAACGGAGTCACCTAGTGCAG”: 3380 fluorescence intensity (a.u.); “AACCGTGACTCTCTGCCCACCTGGCCCCACCTGTCATCTCCGGAGTCACCTAGTGCAG”: 4080 fluorescence intensity (a.u.); “TACTGCGACGAGTGTAGTGTTGATGTGGATGTAACTGTAACGGAGTCACCTAGTGCAG”: 6290 fluorescence intensity (a.u.).
On to “AACGGGGCCTCGTAGCAACAGCTCTGACGCACGTGACCTCCGGAGTCACCTAGTGCAG”, for which the binding signal was 5400 fluorescence intensity (a.u.).
On to “GGTAGATATCTTATTGACACGACATAATTGACACGTGAAACGGAGTCACCTAGTGCAG”, for which the binding signal was 4970 fluorescence intensity (a.u.).
Regarding “CGCCATCAGTAGTCAGAGATGCATATCAGCCCATTGATTTCGGAGTCACCTAGTGCAG”, the binding signal is 3270 fluorescence intensity (a.u.).
Next, “TGAACAGACAGTCAGATTTGCAATATATTCAACCATGCCACGGAGTCACCTAGTGCAG”: 3410 fluorescence intensity (a.u.); “CGCGGCCGACGTGGACCACGTGGTGCGCGGACGCTCTGCGCGGAGTCACCTAGTGCAG”: 12600 fluorescence intensity (a.u.); “TTTGTGAGCTATAAATGTATCCATACATTGCTTTGCATCACGGAGTCACCTAGTGCAG”: 4330 fluorescence intensity (a.u.).
In the case of “GTATTTCCATGGACATCAGCTTTGTATTACAGTCTATAGGCGGAGTCACCTAGTGCAG”, the binding signal was 3230 fluorescence intensity (a.u.).
Then “TGAAATTCTGACCTCACTTCATGCGGCGGGAGGGCGGCTGCGGAGTCACCTAGTGCAG”, with 4320 fluorescence intensity (a.u.).
For the sequence “GACGTTAGTGATCAGCTGGGTTAATTAATTACGTGGCTAACGGAGTCACCTAGTGCAG”, the binding signal was 7210 fluorescence intensity (a.u.).
Next, “ACACCATGCATTTAATTGGTGATAAAATCACATCCTTATCCGGAGTCACCTAGTGCAG”: 32800 fluorescence intensity (a.u.).
Next, “GTCGGCGATGTTCTTGCTGCCGGTGACGATGGATTTCTTGCGGAGTCACCTAGTGCAG”: 3390 fluorescence intensity (a.u.).
As to “ACCAACGCTAAAACCGTTTCACCGTATCCTATATACCTATCGGAGTCACCTAGTGCAG”, the binding signal is 7820 fluorescence intensity (a.u.).
Then “CCCAAATGACTATGTCATATCAATGAGGATGTGAATCAAACGGAGTCACCTAGTGCAG”, with 16400 fluorescence intensity (a.u.); and “CCGTCGCCCGAGAGCGAACGGCCGTCTGCCACGTCATTTTCGGAGTCACCTAGTGCAG”, with 29200 fluorescence intensity (a.u.).
Next, “ACCTGGTAACTGAACACAGGATGGAAACTCTGAATAATGACGGAGTCACCTAGTGCAG”: 3250 fluorescence intensity (a.u.); “GTACATACTGGTGCCTTTTCTGATGTGTACGTATTCCGGTCGGAGTCACCTAGTGCAG”: 5350 fluorescence intensity (a.u.); “AACCGGTTTTGCGGTCAAAGGACGAAAATTAGACAGTCCGCGGAGTCACCTAGTGCAG”: 9300 fluorescence intensity (a.u.).
Then “TATAATTTTGTCATAAATAAAATATTTTAAGCAATATCGTCGGAGTCACCTAGTGCAG”, with 32000 fluorescence intensity (a.u.); and “GATCCTCACAGGATCACGGTCGTGGCATTGCTGGTCCTTGCGGAGTCACCTAGTGCAG”, with 3410 fluorescence intensity (a.u.).
For the sequence “CGCCGCGACGACGGCGGCGGCTGGCCATGGCGGCTCTGTTCGGAGTCACCTAGTGCAG”, the binding signal is 26500 fluorescence intensity (a.u.).
For the sequence “ATCCACGGCCTCCCTCTCTCTCTCTTTCTCGGCTCAGGCACGGAGTCACCTAGTGCAG”, the binding signal was 23300 fluorescence intensity (a.u.).
In the case of “TCTATCACGAGATGTGATATATTCTTTCCTAGTACTACAACGGAGTCACCTAGTGCAG”, the binding signal was 3410 fluorescence intensity (a.u.).
On to “CCTTCCTGCAGTCTAGTCACCTCTCAAGCTACATACTCCCCGGAGTCACCTAGTGCAG”, for which the binding signal was 3650 fluorescence intensity (a.u.).
As to “CGATCCCCATCGCCATGGCCTTGGGTGGCGTGTCCATGGCCGGAGTCACCTAGTGCAG”, the binding signal was 4030 fluorescence intensity (a.u.).
Regarding “TGGAGGGCAGTTTCGCTGACGTGGCGGTGTTGACCTAGTGCGGAGTCACCTAGTGCAG”, the binding signal is 34200 fluorescence intensity (a.u.).
For “AGTTTCAGACTTGTGCACTCGATTTTGTTCTAGGAACATACGGAGTCACCTAGTGCAG”, the binding signal is 33600 fluorescence intensity (a.u.).
